Test [1] has as its target T1, VE-cadherin (human (endogenous in HUVEC and HMEC-1)) (UniProt P33151).
T1 sequence: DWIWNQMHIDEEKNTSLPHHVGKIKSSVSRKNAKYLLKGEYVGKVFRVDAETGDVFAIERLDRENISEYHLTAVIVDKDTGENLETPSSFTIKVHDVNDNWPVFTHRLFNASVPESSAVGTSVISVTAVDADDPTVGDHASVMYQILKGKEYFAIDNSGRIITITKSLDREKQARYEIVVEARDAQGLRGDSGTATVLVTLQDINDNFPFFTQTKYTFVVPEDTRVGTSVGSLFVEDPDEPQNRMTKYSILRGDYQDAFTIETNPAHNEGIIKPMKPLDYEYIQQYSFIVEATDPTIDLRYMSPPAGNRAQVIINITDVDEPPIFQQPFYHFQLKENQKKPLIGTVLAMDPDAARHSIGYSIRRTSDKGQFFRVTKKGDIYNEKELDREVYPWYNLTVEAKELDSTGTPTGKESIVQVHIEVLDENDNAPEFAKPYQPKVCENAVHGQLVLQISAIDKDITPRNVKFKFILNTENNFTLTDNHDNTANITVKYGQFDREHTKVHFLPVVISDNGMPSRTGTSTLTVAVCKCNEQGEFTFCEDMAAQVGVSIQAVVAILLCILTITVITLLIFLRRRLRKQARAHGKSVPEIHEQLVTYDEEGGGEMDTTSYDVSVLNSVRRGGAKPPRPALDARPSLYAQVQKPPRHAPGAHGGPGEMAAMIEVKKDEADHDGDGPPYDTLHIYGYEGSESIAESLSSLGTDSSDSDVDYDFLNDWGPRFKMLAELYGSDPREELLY
Nature of the test: co-IP; reverse: immunoprecipitation of endogenous VE-cadherin, immunoblotting for SPTBN1 (Supplemental Fig. 2A). On the technique in general: A western blot detects proteins with antibodies after separation by electrophoresis.

Protein sequences, listed by entry. Tags and fused reporters are not part of them.
UniProt Q01082: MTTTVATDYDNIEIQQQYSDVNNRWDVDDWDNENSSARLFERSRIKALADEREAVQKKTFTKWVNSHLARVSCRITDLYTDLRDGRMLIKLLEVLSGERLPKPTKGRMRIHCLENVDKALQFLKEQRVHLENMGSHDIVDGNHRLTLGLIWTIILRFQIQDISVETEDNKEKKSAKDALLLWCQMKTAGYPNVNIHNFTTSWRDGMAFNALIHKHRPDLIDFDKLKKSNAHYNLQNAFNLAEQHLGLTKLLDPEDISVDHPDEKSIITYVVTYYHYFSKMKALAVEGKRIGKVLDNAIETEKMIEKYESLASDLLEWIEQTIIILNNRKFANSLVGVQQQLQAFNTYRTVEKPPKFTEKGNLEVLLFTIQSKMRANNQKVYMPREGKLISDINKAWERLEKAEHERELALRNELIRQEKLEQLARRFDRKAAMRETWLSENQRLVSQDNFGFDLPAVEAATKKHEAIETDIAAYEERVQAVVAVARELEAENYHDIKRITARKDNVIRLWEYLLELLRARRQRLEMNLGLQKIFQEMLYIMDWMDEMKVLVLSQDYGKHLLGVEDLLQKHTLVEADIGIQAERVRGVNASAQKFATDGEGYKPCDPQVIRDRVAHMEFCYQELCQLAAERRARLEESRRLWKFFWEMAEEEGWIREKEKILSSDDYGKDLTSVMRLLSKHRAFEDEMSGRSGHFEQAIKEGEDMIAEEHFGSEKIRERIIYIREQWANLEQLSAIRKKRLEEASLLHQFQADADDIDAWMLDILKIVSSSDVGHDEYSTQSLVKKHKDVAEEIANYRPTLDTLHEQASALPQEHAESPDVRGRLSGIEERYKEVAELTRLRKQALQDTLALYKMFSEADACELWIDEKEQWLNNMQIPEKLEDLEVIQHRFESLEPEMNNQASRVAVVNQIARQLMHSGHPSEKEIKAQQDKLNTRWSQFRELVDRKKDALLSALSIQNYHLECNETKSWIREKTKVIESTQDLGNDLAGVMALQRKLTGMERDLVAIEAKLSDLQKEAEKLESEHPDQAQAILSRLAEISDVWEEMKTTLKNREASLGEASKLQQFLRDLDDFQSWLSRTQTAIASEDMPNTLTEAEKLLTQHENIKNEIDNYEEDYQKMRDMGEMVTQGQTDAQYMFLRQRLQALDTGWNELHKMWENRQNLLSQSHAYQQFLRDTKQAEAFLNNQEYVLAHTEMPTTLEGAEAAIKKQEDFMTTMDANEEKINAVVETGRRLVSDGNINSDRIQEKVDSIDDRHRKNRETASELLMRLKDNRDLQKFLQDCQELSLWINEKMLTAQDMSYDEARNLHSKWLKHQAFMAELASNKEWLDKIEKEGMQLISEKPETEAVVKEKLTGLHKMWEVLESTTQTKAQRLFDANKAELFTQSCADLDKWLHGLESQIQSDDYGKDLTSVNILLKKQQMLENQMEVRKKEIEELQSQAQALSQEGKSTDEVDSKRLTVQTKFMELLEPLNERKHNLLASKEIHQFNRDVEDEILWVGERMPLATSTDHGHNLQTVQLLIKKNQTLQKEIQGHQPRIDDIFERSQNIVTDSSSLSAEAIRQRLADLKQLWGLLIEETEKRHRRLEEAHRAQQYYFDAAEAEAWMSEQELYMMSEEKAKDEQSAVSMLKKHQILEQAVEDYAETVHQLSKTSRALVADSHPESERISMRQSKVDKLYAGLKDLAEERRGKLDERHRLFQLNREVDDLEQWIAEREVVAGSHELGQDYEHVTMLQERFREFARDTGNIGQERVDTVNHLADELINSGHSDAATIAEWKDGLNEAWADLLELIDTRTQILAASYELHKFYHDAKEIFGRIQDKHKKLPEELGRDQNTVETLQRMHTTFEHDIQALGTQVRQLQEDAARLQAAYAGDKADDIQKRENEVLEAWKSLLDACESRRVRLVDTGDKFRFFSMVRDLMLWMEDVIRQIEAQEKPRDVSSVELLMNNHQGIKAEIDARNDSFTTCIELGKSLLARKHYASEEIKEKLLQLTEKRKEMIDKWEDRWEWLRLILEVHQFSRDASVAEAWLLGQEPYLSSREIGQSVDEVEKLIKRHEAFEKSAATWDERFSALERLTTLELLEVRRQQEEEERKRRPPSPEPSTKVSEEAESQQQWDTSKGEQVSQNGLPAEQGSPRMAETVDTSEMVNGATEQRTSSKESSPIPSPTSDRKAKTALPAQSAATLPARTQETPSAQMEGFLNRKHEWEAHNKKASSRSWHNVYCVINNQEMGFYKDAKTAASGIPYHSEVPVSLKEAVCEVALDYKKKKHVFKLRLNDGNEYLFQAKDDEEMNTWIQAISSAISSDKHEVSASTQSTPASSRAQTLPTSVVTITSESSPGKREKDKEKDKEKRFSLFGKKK
UniProt Q07157: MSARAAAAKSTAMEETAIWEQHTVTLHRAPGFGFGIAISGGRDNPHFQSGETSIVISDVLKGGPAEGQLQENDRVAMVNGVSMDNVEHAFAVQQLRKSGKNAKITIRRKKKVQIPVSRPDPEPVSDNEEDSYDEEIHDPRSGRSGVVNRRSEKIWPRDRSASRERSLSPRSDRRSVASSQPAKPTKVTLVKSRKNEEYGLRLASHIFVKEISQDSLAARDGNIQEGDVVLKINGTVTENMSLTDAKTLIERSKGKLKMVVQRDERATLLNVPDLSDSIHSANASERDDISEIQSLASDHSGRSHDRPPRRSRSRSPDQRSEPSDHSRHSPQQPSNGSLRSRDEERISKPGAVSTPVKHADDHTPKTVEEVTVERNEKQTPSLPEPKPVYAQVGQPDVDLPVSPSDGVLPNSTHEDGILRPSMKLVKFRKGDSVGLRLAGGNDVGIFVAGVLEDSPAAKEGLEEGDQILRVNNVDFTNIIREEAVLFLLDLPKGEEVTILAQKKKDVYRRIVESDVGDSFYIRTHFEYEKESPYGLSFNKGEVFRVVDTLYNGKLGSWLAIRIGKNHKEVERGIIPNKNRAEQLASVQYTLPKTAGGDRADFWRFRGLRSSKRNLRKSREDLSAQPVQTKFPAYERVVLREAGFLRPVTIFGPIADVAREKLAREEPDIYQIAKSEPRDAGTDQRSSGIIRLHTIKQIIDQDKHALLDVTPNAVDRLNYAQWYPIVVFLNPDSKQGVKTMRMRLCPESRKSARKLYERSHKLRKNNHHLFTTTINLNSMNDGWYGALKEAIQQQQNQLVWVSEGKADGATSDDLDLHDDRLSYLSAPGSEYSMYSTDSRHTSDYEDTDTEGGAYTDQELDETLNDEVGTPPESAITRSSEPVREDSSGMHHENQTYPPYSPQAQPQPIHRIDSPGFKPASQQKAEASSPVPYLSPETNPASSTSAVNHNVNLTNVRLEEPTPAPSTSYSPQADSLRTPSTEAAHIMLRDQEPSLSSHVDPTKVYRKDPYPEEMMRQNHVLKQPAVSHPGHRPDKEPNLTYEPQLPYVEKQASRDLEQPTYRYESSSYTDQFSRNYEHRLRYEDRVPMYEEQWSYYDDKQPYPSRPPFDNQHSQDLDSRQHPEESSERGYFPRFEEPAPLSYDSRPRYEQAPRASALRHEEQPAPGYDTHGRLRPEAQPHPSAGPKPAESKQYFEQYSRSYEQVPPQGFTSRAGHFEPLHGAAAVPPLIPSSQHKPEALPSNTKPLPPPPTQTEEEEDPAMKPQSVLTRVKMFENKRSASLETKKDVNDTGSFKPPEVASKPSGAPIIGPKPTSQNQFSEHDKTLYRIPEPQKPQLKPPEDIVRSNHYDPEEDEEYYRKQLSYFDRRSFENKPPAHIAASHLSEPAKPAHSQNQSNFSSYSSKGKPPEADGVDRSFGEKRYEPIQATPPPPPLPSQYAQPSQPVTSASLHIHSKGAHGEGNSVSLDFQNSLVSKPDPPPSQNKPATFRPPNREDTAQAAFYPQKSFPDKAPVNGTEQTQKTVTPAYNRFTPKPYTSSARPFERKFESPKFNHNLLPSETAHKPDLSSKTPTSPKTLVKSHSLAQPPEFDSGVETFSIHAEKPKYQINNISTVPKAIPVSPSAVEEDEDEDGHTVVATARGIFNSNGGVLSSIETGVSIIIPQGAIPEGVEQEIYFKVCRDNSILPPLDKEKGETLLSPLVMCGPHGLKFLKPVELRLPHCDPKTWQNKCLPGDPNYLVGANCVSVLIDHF

Test [2] has as its target Spectrin Beta Non-Erythrocytic 1 (human (endogenous in HUVEC and HMEC-1)) (UniProt Q01082). The test is described as follows: co-IP; immunoprecipitation of endogenous SPTBN1 from HUVEC and HMEC-1 lysates, immunoblotting for VE-cadherin and ZO-1.

No constants are given. Whether binding was seen depends on the method and setting. Binding seen in cells or lysates may run through a third protein. Some binding calls cover weakened binding; strength is not graded here.

Consider “Spectrin Beta Non-Erythrocytic 1 (from UniProt Q01082 1-2364)”, for which the binding result in test [1] was “binds”.
For “tight junction protein ZO-1 (from UniProt Q07157 1-1748)”, in test [2], the binding entry was “no binding”.

B1: VE-cadherin (protein, UniProt P33151 48-784)
chain: DWIWNQMHIDEEKNTSLPHHVGKIKSSVSRKNAKYLLKGEYVGKVFRVDAETGDVFAIERLDRENISEYHLTAVIVDKDTGENLETPSSFTIKVHDVNDNWPVFTHRLFNASVPESSAVGTSVISVTAVDADDPTVGDHASVMYQILKGKEYFAIDNSGRIITITKSLDREKQARYEIVVEARDAQGLRGDSGTATVLVTLQDINDNFPFFTQTKYTFVVPEDTRVGTSVGSLFVEDPDEPQNRMTKYSILRGDYQDAFTIETNPAHNEGIIKPMKPLDYEYIQQYSFIVEATDPTIDLRYMSPPAGNRAQVIINITDVDEPPIFQQPFYHFQLKENQKKPLIGTVLAMDPDAARHSIGYSIRRTSDKGQFFRVTKKGDIYNEKELDREVYPWYNLTVEAKELDSTGTPTGKESIVQVHIEVLDENDNAPEFAKPYQPKVCENAVHGQLVLQISAIDKDITPRNVKFKFILNTENNFTLTDNHDNTANITVKYGQFDREHTKVHFLPVVISDNGMPSRTGTSTLTVAVCKCNEQGEFTFCEDMAAQVGVSIQAVVAILLCILTITVITLLIFLRRRLRKQARAHGKSVPEIHEQLVTYDEEGGGEMDTTSYDVSVLNSVRRGGAKPPRPALDARPSLYAQVQKPPRHAPGAHGGPGEMAAMIEVKKDEADHDGDGPPYDTLHIYGYEGSESIAESLSSLGTDSSDSDVDYDFLNDWGPRFKMLAELYGSDPREELLY
On to B1, for which the binding result in test [2] is listed as “binds”.

The values above are taken from PMC11303431.
